Measured values as given in the supplement of paper PMC6411743.
± gives the standard deviation of the averaged measurements. Some of the results follow.

Amino acid sequences for entries named in this document (tags omitted). A change or cut given only in a name is not applied to a line headed by its entry.
UniProt Q13148, whole entry: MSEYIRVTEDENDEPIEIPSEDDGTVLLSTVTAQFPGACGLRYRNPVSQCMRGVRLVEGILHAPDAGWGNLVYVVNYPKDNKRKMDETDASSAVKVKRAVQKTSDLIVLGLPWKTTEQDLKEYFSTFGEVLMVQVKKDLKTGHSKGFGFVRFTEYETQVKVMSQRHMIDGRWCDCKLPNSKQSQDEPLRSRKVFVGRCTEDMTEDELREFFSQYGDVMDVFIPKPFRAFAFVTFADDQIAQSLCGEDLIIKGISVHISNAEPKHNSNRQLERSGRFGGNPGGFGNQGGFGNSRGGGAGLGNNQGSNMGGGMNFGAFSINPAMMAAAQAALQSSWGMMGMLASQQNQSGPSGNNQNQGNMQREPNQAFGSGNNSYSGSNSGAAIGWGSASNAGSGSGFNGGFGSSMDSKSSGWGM
UniProt Q13356: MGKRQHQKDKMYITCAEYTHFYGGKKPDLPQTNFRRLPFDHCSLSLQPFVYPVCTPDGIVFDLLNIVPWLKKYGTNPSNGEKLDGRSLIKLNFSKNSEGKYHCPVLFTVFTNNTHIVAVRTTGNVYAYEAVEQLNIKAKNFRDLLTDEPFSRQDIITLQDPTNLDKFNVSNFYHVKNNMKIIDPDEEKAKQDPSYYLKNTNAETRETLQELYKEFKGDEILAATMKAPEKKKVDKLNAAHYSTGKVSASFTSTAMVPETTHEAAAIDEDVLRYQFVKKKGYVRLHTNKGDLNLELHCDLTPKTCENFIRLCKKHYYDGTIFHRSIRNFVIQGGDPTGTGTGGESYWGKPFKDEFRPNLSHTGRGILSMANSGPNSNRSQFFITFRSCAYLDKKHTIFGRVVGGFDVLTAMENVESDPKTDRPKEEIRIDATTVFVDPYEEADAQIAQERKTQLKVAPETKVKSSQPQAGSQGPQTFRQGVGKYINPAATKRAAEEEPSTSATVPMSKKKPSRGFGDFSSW
UniProt Q14118: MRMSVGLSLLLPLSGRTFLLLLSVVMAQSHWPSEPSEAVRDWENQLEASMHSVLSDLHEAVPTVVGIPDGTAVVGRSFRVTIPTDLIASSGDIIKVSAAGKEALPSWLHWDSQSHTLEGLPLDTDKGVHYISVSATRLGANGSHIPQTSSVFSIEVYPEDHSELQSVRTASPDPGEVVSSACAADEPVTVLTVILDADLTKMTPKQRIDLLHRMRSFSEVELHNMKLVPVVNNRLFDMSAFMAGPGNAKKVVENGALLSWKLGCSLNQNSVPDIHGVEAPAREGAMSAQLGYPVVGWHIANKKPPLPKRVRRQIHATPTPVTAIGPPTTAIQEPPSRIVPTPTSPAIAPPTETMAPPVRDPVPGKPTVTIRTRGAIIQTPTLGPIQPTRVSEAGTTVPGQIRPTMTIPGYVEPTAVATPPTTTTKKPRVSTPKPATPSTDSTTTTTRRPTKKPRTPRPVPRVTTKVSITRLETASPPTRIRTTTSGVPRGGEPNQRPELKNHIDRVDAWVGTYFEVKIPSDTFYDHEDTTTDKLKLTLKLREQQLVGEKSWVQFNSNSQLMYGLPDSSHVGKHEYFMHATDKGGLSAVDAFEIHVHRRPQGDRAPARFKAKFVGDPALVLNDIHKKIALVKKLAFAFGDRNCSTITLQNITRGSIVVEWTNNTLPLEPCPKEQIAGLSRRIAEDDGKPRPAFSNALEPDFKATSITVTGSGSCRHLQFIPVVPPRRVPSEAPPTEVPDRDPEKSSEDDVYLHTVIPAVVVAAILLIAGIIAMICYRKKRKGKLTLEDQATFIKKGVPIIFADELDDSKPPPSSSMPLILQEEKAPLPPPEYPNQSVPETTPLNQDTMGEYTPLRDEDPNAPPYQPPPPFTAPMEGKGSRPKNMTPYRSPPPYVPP
UniProt Q13042, whole entry: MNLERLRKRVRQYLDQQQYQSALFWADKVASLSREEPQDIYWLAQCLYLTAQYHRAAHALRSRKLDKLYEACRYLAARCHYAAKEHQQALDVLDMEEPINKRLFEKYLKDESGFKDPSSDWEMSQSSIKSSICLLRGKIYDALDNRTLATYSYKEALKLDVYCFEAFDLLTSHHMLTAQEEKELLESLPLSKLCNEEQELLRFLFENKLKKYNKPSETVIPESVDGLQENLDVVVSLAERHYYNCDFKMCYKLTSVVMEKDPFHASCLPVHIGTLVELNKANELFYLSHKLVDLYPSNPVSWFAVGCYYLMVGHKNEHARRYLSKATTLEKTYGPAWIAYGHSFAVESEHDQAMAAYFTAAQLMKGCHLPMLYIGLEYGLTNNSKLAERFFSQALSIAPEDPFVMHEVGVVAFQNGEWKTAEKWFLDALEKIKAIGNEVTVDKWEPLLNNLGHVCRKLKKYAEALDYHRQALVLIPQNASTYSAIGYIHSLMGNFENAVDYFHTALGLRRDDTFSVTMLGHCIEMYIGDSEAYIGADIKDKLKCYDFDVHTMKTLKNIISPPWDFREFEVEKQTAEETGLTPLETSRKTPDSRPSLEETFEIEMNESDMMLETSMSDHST
UniProt Q13190: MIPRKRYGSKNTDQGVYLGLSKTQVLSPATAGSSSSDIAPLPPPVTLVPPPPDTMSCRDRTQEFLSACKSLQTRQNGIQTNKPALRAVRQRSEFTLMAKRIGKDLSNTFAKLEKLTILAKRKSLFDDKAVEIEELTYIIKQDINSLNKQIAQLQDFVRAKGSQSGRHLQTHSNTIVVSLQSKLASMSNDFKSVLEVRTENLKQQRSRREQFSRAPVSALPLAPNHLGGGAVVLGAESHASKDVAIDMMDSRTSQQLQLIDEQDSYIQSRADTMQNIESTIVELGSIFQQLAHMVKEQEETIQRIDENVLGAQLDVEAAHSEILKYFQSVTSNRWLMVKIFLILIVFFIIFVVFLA
UniProt Q14320: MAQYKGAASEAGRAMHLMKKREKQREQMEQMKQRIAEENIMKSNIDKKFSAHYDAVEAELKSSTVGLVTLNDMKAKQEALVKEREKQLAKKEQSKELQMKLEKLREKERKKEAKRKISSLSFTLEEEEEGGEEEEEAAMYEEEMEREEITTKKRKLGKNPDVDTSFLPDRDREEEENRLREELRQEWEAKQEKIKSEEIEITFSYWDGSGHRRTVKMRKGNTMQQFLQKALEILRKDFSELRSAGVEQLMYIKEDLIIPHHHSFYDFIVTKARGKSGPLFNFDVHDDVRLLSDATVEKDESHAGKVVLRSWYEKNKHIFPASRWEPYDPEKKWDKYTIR
UniProt Q12959, whole entry, looked up: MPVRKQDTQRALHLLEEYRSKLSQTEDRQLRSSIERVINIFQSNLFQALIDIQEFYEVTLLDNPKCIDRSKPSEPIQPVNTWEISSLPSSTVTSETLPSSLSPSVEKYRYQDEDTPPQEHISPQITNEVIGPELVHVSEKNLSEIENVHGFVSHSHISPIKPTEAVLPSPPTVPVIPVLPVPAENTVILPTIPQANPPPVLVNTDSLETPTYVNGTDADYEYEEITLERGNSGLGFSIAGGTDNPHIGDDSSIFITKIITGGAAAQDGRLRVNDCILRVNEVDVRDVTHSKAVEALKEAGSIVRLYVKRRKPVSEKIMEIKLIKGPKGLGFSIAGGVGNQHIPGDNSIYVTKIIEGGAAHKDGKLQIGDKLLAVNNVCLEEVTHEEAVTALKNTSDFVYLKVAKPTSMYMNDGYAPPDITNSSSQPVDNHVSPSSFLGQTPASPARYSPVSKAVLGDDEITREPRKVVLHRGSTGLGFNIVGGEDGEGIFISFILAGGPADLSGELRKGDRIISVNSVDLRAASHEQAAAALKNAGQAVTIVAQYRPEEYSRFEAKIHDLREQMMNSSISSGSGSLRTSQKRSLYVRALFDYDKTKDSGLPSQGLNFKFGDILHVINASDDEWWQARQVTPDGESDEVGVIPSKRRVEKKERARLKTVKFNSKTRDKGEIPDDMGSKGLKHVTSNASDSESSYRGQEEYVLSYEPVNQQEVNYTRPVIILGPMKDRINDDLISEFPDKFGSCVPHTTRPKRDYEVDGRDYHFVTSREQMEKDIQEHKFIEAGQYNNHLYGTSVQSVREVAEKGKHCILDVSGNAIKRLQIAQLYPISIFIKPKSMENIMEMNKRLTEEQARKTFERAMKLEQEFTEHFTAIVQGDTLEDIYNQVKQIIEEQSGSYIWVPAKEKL
UniProt Q08945, whole entry: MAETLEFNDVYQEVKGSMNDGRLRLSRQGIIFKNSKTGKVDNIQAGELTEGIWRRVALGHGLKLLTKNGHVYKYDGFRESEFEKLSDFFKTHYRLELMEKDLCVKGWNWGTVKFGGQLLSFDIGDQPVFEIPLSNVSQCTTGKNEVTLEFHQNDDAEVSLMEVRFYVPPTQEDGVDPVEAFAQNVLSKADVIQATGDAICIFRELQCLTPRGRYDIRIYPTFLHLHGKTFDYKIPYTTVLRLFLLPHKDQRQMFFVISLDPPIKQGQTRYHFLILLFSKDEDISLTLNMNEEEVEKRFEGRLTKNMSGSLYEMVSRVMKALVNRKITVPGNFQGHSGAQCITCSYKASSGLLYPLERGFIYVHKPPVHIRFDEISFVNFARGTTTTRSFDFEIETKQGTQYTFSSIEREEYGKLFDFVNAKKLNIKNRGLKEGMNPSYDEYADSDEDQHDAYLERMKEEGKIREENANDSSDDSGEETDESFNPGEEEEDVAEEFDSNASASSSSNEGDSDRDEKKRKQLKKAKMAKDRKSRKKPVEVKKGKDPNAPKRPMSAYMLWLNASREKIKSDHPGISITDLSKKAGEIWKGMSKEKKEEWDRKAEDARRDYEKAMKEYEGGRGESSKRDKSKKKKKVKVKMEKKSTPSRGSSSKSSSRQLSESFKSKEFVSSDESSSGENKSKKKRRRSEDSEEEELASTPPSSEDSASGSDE
UniProt Q01780: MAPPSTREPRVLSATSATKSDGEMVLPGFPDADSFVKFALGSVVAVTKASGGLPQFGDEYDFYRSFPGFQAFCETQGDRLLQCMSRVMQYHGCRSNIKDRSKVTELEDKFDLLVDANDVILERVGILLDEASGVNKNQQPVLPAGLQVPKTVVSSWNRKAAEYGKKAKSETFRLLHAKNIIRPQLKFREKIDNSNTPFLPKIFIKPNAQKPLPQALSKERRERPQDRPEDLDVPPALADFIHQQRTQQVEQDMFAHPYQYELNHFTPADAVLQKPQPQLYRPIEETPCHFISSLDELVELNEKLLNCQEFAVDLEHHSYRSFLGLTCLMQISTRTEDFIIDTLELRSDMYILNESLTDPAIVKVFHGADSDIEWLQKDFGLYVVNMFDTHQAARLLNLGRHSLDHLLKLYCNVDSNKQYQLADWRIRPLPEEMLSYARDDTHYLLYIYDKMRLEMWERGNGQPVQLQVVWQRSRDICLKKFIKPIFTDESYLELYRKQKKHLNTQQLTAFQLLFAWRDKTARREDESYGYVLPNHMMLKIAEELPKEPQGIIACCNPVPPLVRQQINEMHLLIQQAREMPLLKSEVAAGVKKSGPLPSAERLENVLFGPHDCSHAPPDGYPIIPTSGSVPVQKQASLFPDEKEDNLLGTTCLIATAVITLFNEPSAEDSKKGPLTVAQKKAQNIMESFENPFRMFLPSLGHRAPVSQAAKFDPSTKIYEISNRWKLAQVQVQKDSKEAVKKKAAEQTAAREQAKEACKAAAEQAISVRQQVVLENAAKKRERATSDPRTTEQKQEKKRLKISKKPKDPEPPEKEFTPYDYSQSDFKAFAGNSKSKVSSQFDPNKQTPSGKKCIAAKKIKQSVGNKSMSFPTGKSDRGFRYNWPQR
UniProt Q13094: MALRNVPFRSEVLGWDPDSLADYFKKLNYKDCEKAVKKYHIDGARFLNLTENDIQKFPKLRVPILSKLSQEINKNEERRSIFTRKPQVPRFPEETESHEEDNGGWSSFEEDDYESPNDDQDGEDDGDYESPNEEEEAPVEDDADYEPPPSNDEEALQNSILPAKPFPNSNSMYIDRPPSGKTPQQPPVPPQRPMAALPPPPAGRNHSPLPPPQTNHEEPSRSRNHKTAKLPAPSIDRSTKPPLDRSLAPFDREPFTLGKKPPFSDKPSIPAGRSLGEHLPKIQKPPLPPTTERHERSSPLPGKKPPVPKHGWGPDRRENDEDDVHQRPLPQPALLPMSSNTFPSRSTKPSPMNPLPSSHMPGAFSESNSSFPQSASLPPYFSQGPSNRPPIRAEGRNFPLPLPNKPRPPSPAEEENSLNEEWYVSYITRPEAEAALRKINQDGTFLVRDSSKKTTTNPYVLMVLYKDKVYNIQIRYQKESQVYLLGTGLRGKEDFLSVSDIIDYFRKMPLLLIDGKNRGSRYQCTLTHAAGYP

Compound: Nc1nc2c(ncn2[C@@H]2O[C@H](COP(=O)(O)OP(=O)(O)OP(=O)(O)O)[C@@H](O)[C@H]2O)c(=O)[nH]1 [guanosine triphosphate]
Assay: NP40-soluble protein abundance relative to vehicle (solubility fold change) (ratio); higher = more soluble protein in presence of GTP
Method in brief: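 Crude Jurkat lysate, prepared by Dounce homogenisation, was exposed to eight concentrations from 0.1 to 10 mM for 10 min at room temperature and then 3 min at 37 °C. Solubilisation used 0.8% NP40 with benzonase for 60 min at 4 °C, followed by ultracentrifugation and TMT labelling of the supernatant for LC-MS/MS. After vsn normalisation of intensities, each value is the fold change against the detergent-processed vehicle within each replicate, across three independent experiments.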

Target	NP40-soluble protein abundance (concentration: 0.1mM)	NP40-soluble protein abundance (concentration: 0.5mM)	NP40-soluble protein abundance (concentration: 1mM)	NP40-soluble protein abundance (concentration: 2mM)	NP40-soluble protein abundance (concentration: 4mM)	NP40-soluble protein abundance (concentration: 6mM)	NP40-soluble protein abundance (concentration: 8mM)	NP40-soluble protein abundance (concentration: 10mM)
TARDBP (UniProt Q13148)	0.992 ± 0.053	1.02 ± 0.04	0.963 ± 0.052	0.925 ± 0.046	0.895 ± 0.053	0.954 ± 0.06	0.933 ± 0.02	0.907 ± 0.038
HSPA14 (UniProt Q0VDF9)	1.02 ± 0.031	0.988 ± 0.059	0.954 ± 0.04	0.929 ± 0.05	0.94 ± 0.03	0.908 ± 0.029	0.947 ± 0.031	0.902 ± 0.048
DPYD (UniProt Q12882)	1.05 ± 0.026	1.04 ± 0.042	1.02 ± 0.0055	1.03 ± 0.02	0.997 ± 0.015	0.996 ± 0.035	1 ± 0.03	0.97 ± 0.034
UniProt Q05932 and related entries	1.17 ± 0.17	1.14 ± 0.17	1.06 ± 0.05	1.15 ± 0.13	1.16 ± 0.033	1.13 ± 0.13	1.07 ± 0.14	1.02 ± 0.029
CTDSPL2 (UniProt Q05D32)	0.984 ± 0.059	0.968 ± 0.074	1.03 ± 0.071	1.05 ± 0.062	1.15 ± 0.048	1.15 ± 0.058	1.2 ± 0.041	1.29 ± 0.047
UniProt Q14684 and related entries	0.96 ± 0.015	0.946 ± 0.033	1 ± 0.017	1.01 ± 0.026	1.03 ± 0.031	1.06 ± 0.044	1.087 ± 0.0059	1.15 ± 0.045
UniProt Q06265 and related entries	1.05 ± 0.032	1.03 ± 0.054	1.03 ± 0.086	1.08 ± 0.11	1.19 ± 0.12	1.16 ± 0.16	1.25 ± 0.16	1.21 ± 0.15
UniProt Q14103-3|D6RF44 and related entries	0.913 ± 0.097	0.946 ± 0.094	0.943 ± 0.085	0.894 ± 0.1	0.903 ± 0.1	0.915 ± 0.084	0.947 ± 0.11	0.929 ± 0.11
PPIL2 (UniProt Q13356)	1.12 ± 0.045	1.1 ± 0.088	1.13 ± 0.044	1.11 ± 0.11	1.18 ± 0.049	1.15 ± 0.11	1.17 ± 0.085	1.14 ± 0.11
UniProt Q14318-2|Q14318	0.974 ± 0.053	0.989 ± 0.067	1 ± 0.078	0.974 ± 0.095	0.984 ± 0.086	0.994 ± 0.077	1.02 ± 0.059	1.03 ± 0.086
FOXK2 (UniProt Q01167)	0.954 ± 0.045	0.977 ± 0.06	0.979 ± 0.03	0.959 ± 0.039	0.985 ± 0.039	0.979 ± 0.057	1 ± 0.093	0.993 ± 0.067
UniProt Q13332 and related entries	0.975 ± 0.13	0.979 ± 0.12	0.984 ± 0.13	0.983 ± 0.081	0.999 ± 0.087	1.01 ± 0.19	0.985 ± 0.08	0.957 ± 0.021
UniProt Q14644 and related entries	1.12 ± 0.017	1.09 ± 0.028	1.06 ± 0.016	0.984 ± 0.046	1.08 ± 0.084	0.949 ± 0.083	0.916 ± 0.017	0.897 ± 0.02
DAG1 (UniProt Q14118)	0.853 ± 0.015	0.867 ± 0.032	0.996 ± 0.041	1.02 ± 0.096	0.934 ± 0.057	0.976 ± 0.073	0.914 ± 0.15	1.06 ± 0.15
MGAT5 (UniProt Q09328)	0.998 ± 0.027	0.97 ± 0.1	1 ± 0.073	0.981 ± 0.098	0.873 ± 0.054	0.928 ± 0.081	0.963 ± 0.042	0.95 ± 0.047
UniProt Q13042 and related entries	1.11 ± 0.067	1.16 ± 0.18	1.09 ± 0.14	1.17 ± 0.22	1.24 ± 0.24	1.2 ± 0.23	1.18 ± 0.22	1.13 ± 0.24
UniProt Q13303-2	1.05 ± 0.045	1.06 ± 0.11	0.954 ± 0.086	1 ± 0.14	0.984 ± 0.11	0.973 ± 0.14	0.898 ± 0.024	0.904 ± 0.043
PPAT (UniProt Q06203)	1.01 ± 0.04	1.03 ± 0.071	0.9747 ± 0.0041	0.987 ± 0.083	0.976 ± 0.057	0.971 ± 0.067	0.904 ± 0.0093	0.903 ± 0.066
UniProt Q13190 and related entries	0.972 ± 0.046	0.936 ± 0.026	0.977 ± 0.049	0.975 ± 0.047	1.03 ± 0.055	0.962 ± 0.036	0.932 ± 0.045	0.957 ± 0.053
FAM50A (UniProt Q14320)	0.894 ± 0.048	0.919 ± 0.031	0.885 ± 0.059	0.853 ± 0.068	0.846 ± 0.095	0.877 ± 0.095	0.868 ± 0.082	0.867 ± 0.081
TRIM25 (UniProt Q14258)	1.01 ± 0.02	1.04 ± 0.036	0.983 ± 0.016	0.987 ± 0.022	0.95 ± 0.024	0.966 ± 0.039	0.947 ± 0.037	0.937 ± 0.05
UniProt Q12959-4|A0A0C4DFT3|Q12959 and related entries	1 ± 0.032	0.987 ± 0.036	0.952 ± 0.048	0.951 ± 0.085	0.908 ± 0.083	0.929 ± 0.1	0.912 ± 0.093	0.908 ± 0.085
UniProt Q13905 and related entries	0.998 ± 0.038	0.938 ± 0.074	0.988 ± 0.079	0.98 ± 0.085	0.974 ± 0.08	0.906 ± 0.069	0.94 ± 0.042	0.948 ± 0.013
SSRP1 (UniProt Q08945)	0.94 ± 0.046	0.927 ± 0.052	0.976 ± 0.011	0.959 ± 0.02	1.06 ± 0.04	1.18 ± 0.041	1.33 ± 0.15	1.69 ± 0.2
EXOSC10 (UniProt Q01780)	1.05 ± 0.018	1.09 ± 0.015	1.11 ± 0.012	1.19 ± 0.045	1.32 ± 0.075	1.37 ± 0.098	1.42 ± 0.14	1.45 ± 0.14
LCP2 (UniProt Q13094)	0.9336 ± 0.0033	0.935 ± 0.055	0.998 ± 0.035	0.938 ± 0.065	0.92 ± 0.059	0.964 ± 0.083	0.967 ± 0.019	0.961 ± 0.019
UniProt Q13642-1|Q13642-4|Q13642-5	1.07 ± 0.16	1.09 ± 0.17	0.946 ± 0.13	0.921 ± 0.14	0.932 ± 0.12	0.911 ± 0.12	0.952 ± 0.093	0.915 ± 0.15

Full records, quoted from the list.
LCP2 (UniProt Q13094) in the list: NP40-soluble protein abundance (concentration: 0.1mM): 0.9336 ± 0.0033; NP40-soluble protein abundance (concentration: 0.5mM): 0.935 ± 0.055; NP40-soluble protein abundance (concentration: 1mM): 0.998 ± 0.035; NP40-soluble protein abundance (concentration: 2mM): 0.938 ± 0.065; NP40-soluble protein abundance (concentration: 4mM): 0.92 ± 0.059; NP40-soluble protein abundance (concentration: 6mM): 0.964 ± 0.083; NP40-soluble protein abundance (concentration: 8mM): 0.967 ± 0.019; NP40-soluble protein abundance (concentration: 10mM): 0.961 ± 0.019
UniProt Q12959-4|A0A0C4DFT3|Q12959 and related entries in the list: NP40-soluble protein abundance (concentration: 0.1mM): 1 ± 0.032; NP40-soluble protein abundance (concentration: 0.5mM): 0.987 ± 0.036; NP40-soluble protein abundance (concentration: 1mM): 0.952 ± 0.048; NP40-soluble protein abundance (concentration: 2mM): 0.951 ± 0.085; NP40-soluble protein abundance (concentration: 4mM): 0.908 ± 0.083; NP40-soluble protein abundance (concentration: 6mM): 0.929 ± 0.1; NP40-soluble protein abundance (concentration: 8mM): 0.912 ± 0.093; NP40-soluble protein abundance (concentration: 10mM): 0.908 ± 0.085
